Reference: PubChem BioAssay AID1508597 (Cure First, 2020)

Aim: 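Knock-downs altering ovarian cancer cell survival with or without PARP inhibitor rucaparib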 (primary screen)
System: human ovarian carcinoma lines grown from tumours: OCI-P5x (papillary serous) and OCI-C5x (clear cell)
Knock-down reagent: siRNA pool against human genes, 1.25 pmol siRNA per well
Duration: 72 h or 96 h, depending on the cell culture
Treatment: rucaparib 20 µM (about IC30) or vehicle, present until read-out
Rucaparib or vehicle: Rucaparib
Cell line: OCI-P5x (serous)
Read-out: 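ATP luminescence measured at 72 or 96 h according to the culture, then normalised and expressed as percent viability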
Reading the numbers: viability, normalised: higher = more viable cells remaining
Active means: 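a well counts as a hit if its normalised viability is under 80 percent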
Meaning of the calls: active = viability under 80%; inactive = viability 80% or more
This is a random part of the about 2,100 reagents, in one setting of the screen. 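Calls flag viability under 80% in either arm, not effects specific to rucaparib; the reference for percent is not stated.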 A number with no mark means an inactive call. Some reagents were tested in more than one well and are listed for each. The record does not give: the 100% reference.

gene symbol	technical replicate	viability, normalised (%)
DLG1 (discs large MAGUK scaffold protein 1)	1	64.3 (active)
DLG1 (discs large MAGUK scaffold protein 1)	2	92.6
DLG1 (discs large MAGUK scaffold protein 1)	3	96.1
TGFBR2 (transforming growth factor beta receptor 2)	1	125
TGFBR2 (transforming growth factor beta receptor 2)	2	113
TGFBR2 (transforming growth factor beta receptor 2)	3	106
GNE	1	66.6 (active)
GNE	2	81.2
GNE	3	60.5 (active)
PI4KA (phosphatidylinositol 4-kinase alpha)	1	98.2
PI4KA (phosphatidylinositol 4-kinase alpha)	2	103
PI4KA (phosphatidylinositol 4-kinase alpha)	3	103
COASY (Coenzyme A synthase)	1	60.6 (active)
COASY (Coenzyme A synthase)	2	68.6 (active)
COASY (Coenzyme A synthase)	3	50.8 (active)
MOV10 (Mov10 RNA helicase)	1	49.4 (active)
MOV10 (Mov10 RNA helicase)	2	55.9 (active)
MOV10 (Mov10 RNA helicase)	3	43.7 (active)
PTP4A2 (protein tyrosine phosphatase 4A2)	1	76 (active)
PTP4A2 (protein tyrosine phosphatase 4A2)	2	78.9 (active)
PTP4A2 (protein tyrosine phosphatase 4A2)	3	86.4
LRWD1 (leucine rich repeats and WD repeat domain containing 1)	1	54.7 (active)
LRWD1 (leucine rich repeats and WD repeat domain containing 1)	2	52.5 (active)
LRWD1 (leucine rich repeats and WD repeat domain containing 1)	3	55.4 (active)
MED20 (mediator complex subunit 20)	1	59.1 (active)
MED20 (mediator complex subunit 20)	2	53.6 (active)
MED20 (mediator complex subunit 20)	3	47.8 (active)
WDR82 (WD repeat domain 82)	1	76.3 (active)
WDR82 (WD repeat domain 82)	2	89
WDR82 (WD repeat domain 82)	3	67.6 (active)
BABAM1 (BRISC and BRCA1 A complex member 1)	1	66.5 (active)
BABAM1 (BRISC and BRCA1 A complex member 1)	1	89.6
BABAM1 (BRISC and BRCA1 A complex member 1)	2	75.6 (active)
BABAM1 (BRISC and BRCA1 A complex member 1)	2	77.1 (active)
BABAM1 (BRISC and BRCA1 A complex member 1)	3	92.6
BABAM1 (BRISC and BRCA1 A complex member 1)	3	80.9
ACVR1B (activin A receptor type 1B)	1	131
ACVR1B (activin A receptor type 1B)	2	115
ACVR1B (activin A receptor type 1B)	3	145
WRN (WRN RecQ like helicase)	1	92.4
WRN (WRN RecQ like helicase)	1	57.3 (active)
WRN (WRN RecQ like helicase)	2	73 (active)
WRN (WRN RecQ like helicase)	2	81.9
WRN (WRN RecQ like helicase)	3	54.2 (active)
WRN (WRN RecQ like helicase)	3	95.4
PCDHB5 (protocadherin beta 5)	1	57.8 (active)
PCDHB5 (protocadherin beta 5)	2	60.3 (active)
PCDHB5 (protocadherin beta 5)	3	55 (active)
POLR2E (RNA polymerase II, I and III subunit E)	1	45.5 (active)
POLR2E (RNA polymerase II, I and III subunit E)	2	65.4 (active)
POLR2E (RNA polymerase II, I and III subunit E)	3	46.2 (active)
CLK3 (CDC like kinase 3)	1	104
CLK3 (CDC like kinase 3)	2	85.7
CLK3 (CDC like kinase 3)	3	90.4
PFKM (phosphofructokinase, muscle)	1	137
PFKM (phosphofructokinase, muscle)	2	119
PFKM (phosphofructokinase, muscle)	3	125
IGF1R (insulin like growth factor 1 receptor)	1	73.2 (active)
IGF1R (insulin like growth factor 1 receptor)	2	64.7 (active)
IGF1R (insulin like growth factor 1 receptor)	3	68.3 (active)
POU5F1 (POU class 5 homeobox 1)	1	60.8 (active)
POU5F1 (POU class 5 homeobox 1)	2	52 (active)
POU5F1 (POU class 5 homeobox 1)	3	46.7 (active)
BHLHE40 (basic helix-loop-helix family member e40)	1	63.1 (active)
BHLHE40 (basic helix-loop-helix family member e40)	2	64.8 (active)
BHLHE40 (basic helix-loop-helix family member e40)	3	59.9 (active)
KDM5B (lysine demethylase 5B)	1	51.2 (active)
KDM5B (lysine demethylase 5B)	2	45.3 (active)
KDM5B (lysine demethylase 5B)	3	39 (active)
PCDHB16 (protocadherin beta 16)	1	47.5 (active)
PCDHB16 (protocadherin beta 16)	2	43.2 (active)
PCDHB16 (protocadherin beta 16)	3	51.6 (active)
PEA15 (proliferation and apoptosis adaptor protein 15)	1	48.8 (active)
PEA15 (proliferation and apoptosis adaptor protein 15)	2	53.7 (active)
PEA15 (proliferation and apoptosis adaptor protein 15)	3	49.9 (active)

8 entries already listed, ordered by “viability, normalised (%)”, low to high:
gene symbol	technical replicate	viability, normalised (%)
MED20 (mediator complex subunit 20)	3	47.8 (active)
BABAM1 (BRISC and BRCA1 A complex member 1)	1	66.5 (active)
WDR82 (WD repeat domain 82)	3	67.6 (active)
BABAM1 (BRISC and BRCA1 A complex member 1)	2	75.6 (active)
WDR82 (WD repeat domain 82)	1	76.3 (active)
BABAM1 (BRISC and BRCA1 A complex member 1)	2	77.1 (active)
WDR82 (WD repeat domain 82)	2	89
BABAM1 (BRISC and BRCA1 A complex member 1)	1	89.6
